{"source": "patent US20180353462A1", "about": "“[…] AGENTS […] FLAVONOID DERIVATIVES TARGETING KINASES, SIRTUINS AND ONCOGENIC AGENTS FOR THE TREATMENT OF CANCERS” (priority 2015, published 2018)", "key": {"MV4-11 (Leukemia)": {"tested_on": "MV4-11 (Leukemia)", "assay": "WST-1 anticancer cell proliferation assay, MV4-11", "format": "cell-based", "conditions": "Homo sapiens, Table 4, read-out: Acute Myeloid Leukemia cell lines MV4-11 IC50", "procedure": "(§1) Bioactivity of the above-described compounds has been verified by an anticancer cell proliferation assay using the WST-1 (4-[3-(4-iodophenyl)-2-(4-nitrophenyl)-2H-5-tetrazolio]-1, 3-benzene disulfonate) colorimetric assay by Roche Life Sciences®. Anticancer activity was tested against several standard cancer cell lines including brain, breast, Kaposi sarcoma, leukemia, lung, melanoma, tenosynovial giant cell tumor, ovarian, pancreatic, colon and prostate cancer. Cells were trypsinized and plated into 96 well plates in 50 μl of media and incubated overnight. The next day approximately 18 hours after plating, 50 μl of media containing the required flavonoid-based pharmaceutical composition was added per well. Cells were plated at a density so that 72 hours post drug addition, the cells will be in log phase (500)-2000 cells/well). The compounds and extracts were solubilized in Dimethyl sulfoxide (DMSO). The cells are allowed to proliferate for 72 hours 37° C. in humidified atmosphere of 5% CO2. The experiment is terminated using WST-1 (Roche®) 10 μl per well and absorbance is read at 450 nm %690 nm. The effect of drugs on growth is assessed as percent of cell viability. The IC50 values were determined from the extract dose versus control growth curves using Graphpad Prism® software. All experiments were carried out in duplicate and the mean results determined."}, "[1]": {"tested_on": "THP-1 acute myeloid leukemia cell line", "assay": "WST-1 anticancer cell proliferation assay, THP-1", "format": "cell-based", "conditions": "Homo sapiens, Table 4, read-out: Acute Myeloid Leukemia cell lines THP-1 IC50", "procedure": "as §1, with “Anticancer” for “Bioactivity of the above-described compounds has been verified by an anticancer cell proliferation assay using the WST-1 (4-[3-(4-iodophenyl)-2-(4-nitrophenyl)-2H-5-tetrazolio]-1, 3-benzene disulfonate) colorimetric assay by Roche Life Sciences®. Anticancer”"}}, "data": [{"compound": "CO[C@@H]1[C@H](N(C)C(=O)c2ccccc2)C[C@H]2O[C@]1(C)n1c3ccccc3c3c4c(c5c6ccccc6n2c5c31)C(=O)NC4", "note": "[Midostaurin, reference compound]", "values": [{"measurement": "IC50", "setting": "MV4-11 (Leukemia)", "value": 8, "unit": "nM"}, {"measurement": "IC50", "setting": "[1]", "value": "> 100000", "unit": "nM"}]}]}
